Source: article PMC8315051
No constants are given. Whether binding was seen depends on the method and setting. In cells and extracts the contact can be indirect. Some binding calls cover weakened binding; strength is not graded here.

By UniProt entry, the sequences of proteins in these tests, tags left out.
UniProt P01106: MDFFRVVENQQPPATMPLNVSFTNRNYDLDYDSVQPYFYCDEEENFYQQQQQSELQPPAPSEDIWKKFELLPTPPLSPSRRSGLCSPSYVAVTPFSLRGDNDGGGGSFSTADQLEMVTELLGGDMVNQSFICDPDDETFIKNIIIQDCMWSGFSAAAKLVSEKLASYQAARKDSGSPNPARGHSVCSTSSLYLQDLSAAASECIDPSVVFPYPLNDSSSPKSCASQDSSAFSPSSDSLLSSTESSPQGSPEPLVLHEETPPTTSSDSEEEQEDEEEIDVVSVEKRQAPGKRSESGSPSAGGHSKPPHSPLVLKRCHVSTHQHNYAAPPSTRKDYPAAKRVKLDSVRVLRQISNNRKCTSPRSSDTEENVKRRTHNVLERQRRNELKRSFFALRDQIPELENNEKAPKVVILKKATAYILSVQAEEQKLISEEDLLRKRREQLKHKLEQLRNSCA
UniProt O94953: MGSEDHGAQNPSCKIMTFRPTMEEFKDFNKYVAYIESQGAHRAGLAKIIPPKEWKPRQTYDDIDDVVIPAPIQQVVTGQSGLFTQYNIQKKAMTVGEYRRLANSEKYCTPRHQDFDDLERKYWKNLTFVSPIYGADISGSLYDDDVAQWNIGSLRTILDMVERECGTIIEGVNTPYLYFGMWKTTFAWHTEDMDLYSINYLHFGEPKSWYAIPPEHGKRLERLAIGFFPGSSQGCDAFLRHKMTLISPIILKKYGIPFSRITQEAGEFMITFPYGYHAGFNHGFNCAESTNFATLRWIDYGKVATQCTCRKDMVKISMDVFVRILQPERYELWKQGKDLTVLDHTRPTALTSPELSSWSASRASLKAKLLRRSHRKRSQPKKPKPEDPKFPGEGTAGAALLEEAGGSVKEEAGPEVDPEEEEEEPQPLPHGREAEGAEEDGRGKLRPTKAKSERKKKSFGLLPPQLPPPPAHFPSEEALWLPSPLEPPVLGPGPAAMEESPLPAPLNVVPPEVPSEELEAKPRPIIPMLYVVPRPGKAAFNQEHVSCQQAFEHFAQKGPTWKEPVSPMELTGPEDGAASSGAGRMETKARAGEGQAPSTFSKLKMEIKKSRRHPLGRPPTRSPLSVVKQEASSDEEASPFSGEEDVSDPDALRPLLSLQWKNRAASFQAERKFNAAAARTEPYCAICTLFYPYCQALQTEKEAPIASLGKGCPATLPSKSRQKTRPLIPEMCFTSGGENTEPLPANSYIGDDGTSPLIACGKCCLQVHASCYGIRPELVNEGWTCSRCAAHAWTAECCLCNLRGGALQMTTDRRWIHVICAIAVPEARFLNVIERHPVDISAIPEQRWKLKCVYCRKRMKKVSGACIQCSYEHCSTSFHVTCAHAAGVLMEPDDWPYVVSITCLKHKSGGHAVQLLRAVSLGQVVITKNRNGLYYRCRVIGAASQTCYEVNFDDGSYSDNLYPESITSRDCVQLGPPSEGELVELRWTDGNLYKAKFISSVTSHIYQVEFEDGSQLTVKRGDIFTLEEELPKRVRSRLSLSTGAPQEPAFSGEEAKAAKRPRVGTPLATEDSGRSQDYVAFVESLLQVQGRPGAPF

Assays:
[1] = molecular target: c-Myc, endogenous in C4-2B cells (human (endogenous in C4-2B)) (UniProt P01106); test: co-IP; endogenous proteins in C4-2B cell lysates; IP with anti-KDM4B or anti-c-Myc antibody, rabbit IgG as negative control; immunoblot
[2] = molecular target: HA-tagged full-length KDM4B (KDM4B-FL) (UniProt O94953); test: co-IP; lysates of HEK293 cells (text: 293T) co-transfected with HA-KDM4B and Flag-c-Myc or a truncated Flag-c-Myc; IP with anti-HA antibody on protein A/G magnetic beads, 4 °C overnight, lysis buffer 50 mM Tris-HCl pH 7.4, 150 mM NaCl, 0.5% NP40; immunoblot with anti-Flag
[3] = molecular target: Flag-tagged full-length c-Myc (c-Myc-FL) (human) (UniProt P01106); test: co-IP; lysates of HEK293 cells (text: 293T) co-transfected with Flag-c-Myc and HA-KDM4B or a truncated HA-KDM4B; IP with anti-Flag antibody on protein A/G magnetic beads, 4 °C overnight, lysis buffer 50 mM Tris-HCl pH 7.4, 150 mM NaCl, 0.5% NP40; immunoblot with anti-HA

KDM4B, endogenous in C4-2B cells (from UniProt O94953 1-1096)
binding [1]: binds

Flag-tagged full-length c-Myc (c-Myc-FL) (from UniProt P01106 1-454)
binding [2]: binds

HA-tagged full-length KDM4B (KDM4B-FL) (from UniProt O94953 1-1096)
binding [3]: binds
